Measured values published in patent publication US11492338B2, “Furan surfactant compositions and methods” (SIRONIX RENEWABLES, INC., priority 2020, dated 2022).

Tests used:
[1] = Ross Miles foam height, ASTM D1173
[2] = High shear foam height in distilled water, ASTM D319-88
[3] = High shear foam loss in 100 ppm hard water solution
[4] = Emulsion separation time, surfactant solution and soybean oil; conditions: 0.1 wt % surfactant, 20 mL each of surfactant solution and soybean oil
[5] = Stain removal index, hard set blood on cotton fabric; conditions: 1 minute wash, 0.1 wt % surfactant solution at 20° C.
[6] = Table 2, immediately after foam formation
[7] = Table 2, distilled water, after 5 minutes, 13,700 rpm, 0.1 wt % surfactant
[8] = Table 2, distilled water, immediately after foam formation, 13,700 rpm, 0.1 wt % surfactant
[9] = Table 2, percent of high shear foam height lost in 100 ppm hard water solution
[10] = Table 3, immediately after foam formation
[11] = Table 3, first value (immediately after foam formation)
[12] = Table 3, second value (after 5 minutes)

In the case of CCCCCCCCCCCC(=O)c1cc(S(=O)(=O)O)c(C)o1.N [NH4^+], the “Ross Miles Foam Height” value ([1]; Table 2, after 5 minutes) was 55 mm, the “Ross Miles Foam Height” value [1, 6] was 75 mm and the “High Shear Foam Height” value [2, 7] was 8 mm. The “High Shear Foam Height” value [2, 8] was 23 mm, the “High Shear Foam Loss” value [3, 9] was 0% and the “Average Emulsion Separation Time, 15 mL” value [4] was 6.1 min.

In the case of CCCCCCCCCCCC(=O)c1cc(S(=O)(=O)[O-])c(C)o1.[Na+] [Na^+], the “Ross Miles Foam Height” value ([1]; Table 2, after 5 minutes) was 132 mm, the “Ross Miles Foam Height” value [1, 6] was 134 mm and the “Ross Miles Foam Height” value ([1]; Table 3, after 5 minutes) was 132 mm. The “Ross Miles Foam Height” value [1, 10] was 134 mm, the “High Shear Foam Height” value [2, 7] was 69 mm and the “High Shear Foam Height” value [2, 8] was 71 mm. The “High Shear Foam Height” value [2, 11] was 70 mm, the “High Shear Foam Height” value [2, 12] was 65 mm and the “High Shear Foam Loss” value [3, 9] was 30%. The “High Shear Foam Loss” value ([3]; Table 3, hard water) was 17^ %, the “Average Emulsion Separation Time, 15 mL” value [4] was 4.4 min and the “Stain Removal Index: Hard Set Blood on Cotton Fabric” value [5] was 13.2.

In the case of CCCCCCCCCCCC(=O)c1cc(S(=O)(=O)[O-])c(C)o1.[Li+] [Li^+], the “Ross Miles Foam Height” value ([1]; Table 2, after 5 minutes) was 120 mm, the “Ross Miles Foam Height” value [1, 6] was 135 mm and the “High Shear Foam Height” value [2, 7] was 84 mm. The “High Shear Foam Height” value [2, 8] was 85 mm, the “High Shear Foam Loss” value [3, 9] was 28% and the “Average Emulsion Separation Time, 15 mL” value [4] was 3.7 min.

For CCCCCCCCCCCC(=O)c1ccc(S(=O)(=O)[O-])o1.[Na+] [Na^+ OFS-12-1/0], the “Ross Miles Foam Height” value ([1]; Table 3, after 5 minutes) was 112 mm, the “Ross Miles Foam Height” value [1, 10] was 138 mm and the “High Shear Foam Height” value [2, 11] was 70 mm. For the same molecule, the “High Shear Foam Height” value [2, 12] was 65 mm, the “High Shear Foam Loss” value ([3]; Table 3, hard water) was 0^6% and the “Average Emulsion Separation Time, 15 mL” value [4] was 3.6 min. For the same molecule, the “Stain Removal Index: Hard Set Blood on Cotton Fabric” value [5] was 20.3.

In the case of CCCCCCCCCCCC(=O)c1cc(S(=O)(=O)[O-])c(C)o1.CCCCCCCCCCCC(=O)c1cc(S(=O)(=O)[O-])c(C)o1.[Mg+2] [Mg^2+], the “Ross Miles Foam Height” value ([1]; Table 2, after 5 minutes) was 175 mm, the “Ross Miles Foam Height” value [1, 6] was 185 mm and the “High Shear Foam Height” value [2, 7] was 41 mm. The “High Shear Foam Height” value [2, 8] was 43 mm and the “High Shear Foam Loss” value [3, 9] was 16%.

For CCCCCCCCCCCCOCCOCCOCCOS(=O)(=O)[O-].[Na+] [SLES, sodium lauryl ether sulfate, reference compound], the “Ross Miles Foam Height” value ([1]; Table 2, after 5 minutes) was 150 mm, the “Ross Miles Foam Height” value [1, 6] was 160 mm and the “High Shear Foam Height” value [2, 7] was 48 mm. For the same molecule, the “High Shear Foam Height” value [2, 8] was 50 mm and the “High Shear Foam Loss” value [3, 9] was 42%.

In the case of CCCCCCCCCCCC(=O)c1cc(S(=O)(=O)O)c(C)o1 [Ca^2+], the “Ross Miles Foam Height” value ([1]; Table 2, after 5 minutes) was 170 mm, the “Ross Miles Foam Height” value [1, 6] was 180 mm and the “High Shear Foam Height” value [2, 7] was 51 mm. The “High Shear Foam Height” value [2, 8] was 53 mm, the “High Shear Foam Loss” value [3, 9] was 11% and the “Average Emulsion Separation Time, 15 mL” value [4] was greater than 20 min.
